Article PMC8899535
No constants are given. Whether binding was seen depends on the method and setting. In cells and extracts the contact can be indirect. A result given as binding can be weak or reduced; the word gives no strength.

By UniProt entry, the sequences of proteins in these tests, tags left out. Where a name states a change or a piece, a line headed by the entry shows the natural chain unless it says otherwise.
UniProt B7EQT4: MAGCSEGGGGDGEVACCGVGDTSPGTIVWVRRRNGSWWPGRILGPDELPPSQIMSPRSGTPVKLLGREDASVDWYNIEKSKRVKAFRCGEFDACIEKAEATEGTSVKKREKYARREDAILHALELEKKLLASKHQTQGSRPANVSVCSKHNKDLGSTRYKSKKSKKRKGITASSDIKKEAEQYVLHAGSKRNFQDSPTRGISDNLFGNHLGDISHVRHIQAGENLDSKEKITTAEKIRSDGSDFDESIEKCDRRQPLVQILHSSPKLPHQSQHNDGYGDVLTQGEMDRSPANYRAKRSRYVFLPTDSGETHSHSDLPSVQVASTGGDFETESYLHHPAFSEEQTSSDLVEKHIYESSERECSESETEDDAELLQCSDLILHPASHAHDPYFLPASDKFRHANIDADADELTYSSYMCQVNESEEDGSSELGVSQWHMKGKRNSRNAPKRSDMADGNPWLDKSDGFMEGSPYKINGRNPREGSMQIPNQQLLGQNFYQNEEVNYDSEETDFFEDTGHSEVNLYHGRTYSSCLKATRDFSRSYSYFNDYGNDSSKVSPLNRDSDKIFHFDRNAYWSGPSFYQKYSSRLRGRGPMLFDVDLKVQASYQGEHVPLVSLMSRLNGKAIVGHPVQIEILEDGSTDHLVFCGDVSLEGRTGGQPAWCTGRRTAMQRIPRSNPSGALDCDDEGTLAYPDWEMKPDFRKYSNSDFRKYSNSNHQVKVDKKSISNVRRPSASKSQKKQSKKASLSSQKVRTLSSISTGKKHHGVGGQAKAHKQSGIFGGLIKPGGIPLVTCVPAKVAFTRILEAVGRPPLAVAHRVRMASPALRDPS
UniProt A0A0P0V419: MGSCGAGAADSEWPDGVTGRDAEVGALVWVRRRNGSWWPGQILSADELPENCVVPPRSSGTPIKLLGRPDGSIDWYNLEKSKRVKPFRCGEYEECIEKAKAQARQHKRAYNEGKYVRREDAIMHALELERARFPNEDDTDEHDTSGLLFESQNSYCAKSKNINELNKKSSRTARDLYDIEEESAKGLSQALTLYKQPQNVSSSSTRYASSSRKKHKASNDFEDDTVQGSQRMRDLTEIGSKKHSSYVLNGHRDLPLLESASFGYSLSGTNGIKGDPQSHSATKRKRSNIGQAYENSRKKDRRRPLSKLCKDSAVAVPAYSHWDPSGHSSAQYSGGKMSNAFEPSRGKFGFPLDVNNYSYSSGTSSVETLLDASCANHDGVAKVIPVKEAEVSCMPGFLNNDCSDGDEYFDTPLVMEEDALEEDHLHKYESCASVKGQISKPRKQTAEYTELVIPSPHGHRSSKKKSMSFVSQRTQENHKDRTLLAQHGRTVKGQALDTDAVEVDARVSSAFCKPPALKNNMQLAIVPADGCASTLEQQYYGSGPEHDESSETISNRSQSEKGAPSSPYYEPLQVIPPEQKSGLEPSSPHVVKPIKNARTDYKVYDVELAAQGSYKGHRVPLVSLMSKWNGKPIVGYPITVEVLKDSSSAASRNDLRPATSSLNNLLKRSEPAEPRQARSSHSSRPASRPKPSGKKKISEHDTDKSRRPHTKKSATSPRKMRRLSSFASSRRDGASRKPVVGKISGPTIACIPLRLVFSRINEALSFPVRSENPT

molecular target: T1, YC-OsTZF7 (rice (Oryza sativa, cultivar Nipponbare)) (UniProt Q65X92); experiment: split reporter; BiFC with YN and YC fragments of YFP, transient expression in tobacco leaf epidermal cells, confocal microscopy
T1 sequence: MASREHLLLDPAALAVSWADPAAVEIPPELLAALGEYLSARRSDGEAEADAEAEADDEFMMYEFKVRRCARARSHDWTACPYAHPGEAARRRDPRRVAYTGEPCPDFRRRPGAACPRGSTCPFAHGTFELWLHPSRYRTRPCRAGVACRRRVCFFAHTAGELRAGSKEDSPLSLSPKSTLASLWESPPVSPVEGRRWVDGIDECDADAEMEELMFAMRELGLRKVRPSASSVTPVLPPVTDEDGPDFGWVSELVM

binding	Substance
binds	YN-OsPWWP1 (from UniProt B7EQT4)
binds	YN-OsPWWP2 (rice)
binds	YN-OsPWWP3 (from UniProt A0A0P0V419)
